Source: publication PMC10015868
Results are given in words; binding and its absence hold for the method and conditions named. In cells and extracts the contact can be indirect. Some results given as binding are weak or reduced against the parent protein; the word gives no strength. For some of these results: Tags and fused reporters may be left off the sequences shown.

Chains of the proteins cited; added tags and fusions are not shown.
UniProt P19525: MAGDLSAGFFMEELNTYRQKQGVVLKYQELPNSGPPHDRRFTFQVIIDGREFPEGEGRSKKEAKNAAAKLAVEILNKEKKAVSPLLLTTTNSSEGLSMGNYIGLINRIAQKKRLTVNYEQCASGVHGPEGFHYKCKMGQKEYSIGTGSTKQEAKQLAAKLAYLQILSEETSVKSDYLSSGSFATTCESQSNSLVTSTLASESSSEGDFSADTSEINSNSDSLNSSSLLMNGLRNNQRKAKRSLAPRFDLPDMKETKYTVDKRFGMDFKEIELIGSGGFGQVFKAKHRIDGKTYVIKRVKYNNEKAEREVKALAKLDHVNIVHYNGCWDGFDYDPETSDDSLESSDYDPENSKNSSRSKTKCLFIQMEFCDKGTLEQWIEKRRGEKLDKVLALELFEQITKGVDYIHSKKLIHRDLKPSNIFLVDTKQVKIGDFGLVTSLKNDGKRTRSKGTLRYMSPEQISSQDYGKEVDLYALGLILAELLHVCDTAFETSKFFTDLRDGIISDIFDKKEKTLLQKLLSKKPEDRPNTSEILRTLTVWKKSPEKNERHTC

What was measured:
p65‐Flag, Q04206 = test: co-IP; HEK293T cells transfected with tagged plasmids (in some panels with circWDR37 or forced PKR expression); lysed in coIP buffer, antibody at 4 °C overnight, beads 1 h at room temperature, washed ten times, western blot; conditions: remark: other sources report otherwise
[1] = target: double‐stranded RNA‐activated protein kinase R (PKR), endogenous in NPC cells (human (endogenous in HONE1 and S18)) (UniProt P19525); test: co-IP; HONE1 cells treated with si-circWDR37 or siSCR; PKR with PACT or TRBP; which protein was precipitated is not told
GST‐PKR = GST‐PKR (UniProt P19525); test: pull-down; 20 µg purified GST-PKR or GST-PKR^T446DT451D on glutathione Sepharose 4B; lysate of transfected 293T cells added at 4 °C overnight; washed six times with NETN buffer (20 mM Tris-HCl pH 8.0, 100 mM NaCl, 1 mM EDTA, 0.5% NP-40); western blot; only the target purified
[2] = target: PKR‐Flag expressed in HEK293T cells (UniProt P19525); test: co-IP; HEK293T cells transfected with tagged plasmids (in some panels with circWDR37 or forced PKR expression); lysed in coIP buffer, antibody at 4 °C overnight, beads 1 h at room temperature, washed ten times, western blot

B1: IκBα‐myc (NF‐κB inhibitor alpha), P25963 1-317 (protein)
chain: MFQAAERPQEWAMEGPRDGLKKERLLDDRHDSGLDSMKDEEYEQMVKELQEIRLEPQEVPRGSEPWKQQLTEDGDSFLHLAIIHEEKALTMEVIRQVKGDLAFLNFQNNLQQTPLHLAVITNQPEIAEALLGAGCDPELRDFRGNTPLHLACEQGCLASVGVLTQSCTTPHLHSILKATNYNGHTCLHLASIHGYLGIVELLVSLGADVNAQEPCNGRTALHLAVDLQNPDLVSLLLKCGADVNRVTYQGYSPYQLTWGRPSTRIQQQLGQLTLENLQMLPESEDEESYDTESEFTEFTEDELPYDDCVFGGQRLTL
How did the binding (p65‐Flag, Q04206) turn out when B1 was run?
Its binding is “binds”.

B2: TAR RNA‐binding protein (TRBP) (protein, UniProt Q15633 1-366)
chain: MSEEEQGSGTTTGCGLPSIEQMLAANPGKTPISLLQEYGTRIGKTPVYDLLKAEGQAHQPNFTFRVTVGDTSCTGQGPSKKAAKHKAAEVALKHLKGGSMLEPALEDSSSFSPLDSSLPEDIPVFTAAAAATPVPSVVLTRSPPMELQPPVSPQQSECNPVGALQELVVQKGWRLPEYTVTQESGPAHRKEFTMTCRVERFIEIGSGTSKKLAKRNAAAKMLLRVHTVPLDARDGNEVEPDDDHFSIGVGSRLDGLRNRGPGCTWDSLRNSVGEKILSLRSCSLGSLGALGPACCRVLSELSEEQAFHVSYLDIEELSLSGLCQCLVELSTQPATVCHGSATTREAARGEAARRALQYLKIMAGSK
B2 was tested. Which binding [1] did it give?
Its binding is “binds”.

B3: IKKβ‐HA (I‐kappaB kinase beta), full length (protein, UniProt O14920 1-756)
chain: MSWSPSLTTQTCGAWEMKERLGTGGFGNVIRWHNQETGEQIAIKQCRQELSPRNRERWCLEIQIMRRLTHPNVVAARDVPEGMQNLAPNDLPLLAMEYCQGGDLRKYLNQFENCCGLREGAILTLLSDIASALRYLHENRIIHRDLKPENIVLQQGEQRLIHKIIDLGYAKELDQGSLCTSFVGTLQYLAPELLEQQKYTVTVDYWSFGTLAFECITGFRPFLPNWQPVQWHSKVRQKSEVDIVVSEDLNGTVKFSSSLPYPNNLNSVLAERLEKWLQLMLMWHPRQRGTDPTYGPNGCFKALDDILNLKLVHILNMVTGTIHTYPVTEDESLQSLKARIQQDTGIPEEDQELLQEAGLALIPDKPATQCISDGKLNEGHTLDMDLVFLFDNSKITYETQISPRPQPESVSCILQEPKRNLAFFQLRKVWGQVWHSIQTLKEDCNRLQQGQRAAMMNLLRNNSCLSKMKNSMASMSQQLKAKLDFFKTSIQIDLEKYSEQTEFGITSDKLLLAWREMEQAVELCGRENEVKLLVERMMALQTDIVDLQRSPMGRKQGGTLDDLEEQARELYRRLREKPRDQRTEGDSQEMVRLLLQAIQSFEKKVRVIYTQLSKTVVCKQKALELLPKVEEVVSLMNEDEKTVVRLQEKRQKELWNLLKIACSKVRGPVSGSPDSMNASRLSQPGQLMSQPSTASNSLPEPAKKSEELVAEAHNLCTLLENAIQDTVREQDQSFTALDWSWLQTEEEEHSCLEQAS
For B3, which binding (GST‐PKR) is on record?
Its binding is “binds”.

And the binding [2]?
The binding was “binds”.
